# Measurements from PubChem BioAssay AID624297 (National Center for Advancing Translational Sciences (NCATS), 2012).
# Among all 340,000 compounds or so, about 6,200 (1.8%) were called active. The shares of active, inactive and inconclusive entries below differ from those in the screen. Calls follow the shape of the dose curve; as a rule, active = well fitted activation curve with a large enough effect; inconclusive = small, poorly fitted or top-dose-only effect; inactive = no such curve, though single readings can be large or run the other way. A potency beside an inconclusive call is a rough fit, not a confirmed value.
# Assay: A quantitative high throughput screen for small molecules that induce DNA re-replication in SW480 colon adenocarcinoma cells. Also: nearly all actives have a fitted effect of over 55% in size. As to re-replication activation: % of control where 0% means no effect.
# Settings: Hoechst DNA content imaging, 48 h; re-replication activation: at 46.1 µM (top of the series) unless noted
# In short: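 Image-based read-out: total Hoechst fluorescence of nuclei (405 nm excitation, 500-530 nm emission), with hits raising the fraction of high-intensity nuclei. SW480 colon cells incubated 48 hr with compounds at 37 C.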
# Potency is read from the fitted curve at half-maximal effect.
Compound,Potency,re-replication activation
CC(C)(C)OC(=O)[C@H](Cc1ccccc1)NC(=O)c1[nH]cnc1C(=O)Nc1ccc(Cl)cc1,"inconclusive: 20.6 µM [activator, partial curve, poor fit]",
FC(F)(F)c1ccncc1-c1nnnn1-c1ccc(Cl)cc1,inactive,
COc1ccc(C(c2nnnn2Cc2cccs2)N2CCN(c3ccccc3F)CC2)cc1OC (stereo unspecified),"inconclusive: 0.141 µM [activator, full curve, poor fit]",
COc1cc(/C=C2/SC(=S)N(Cc3ccccc3)C2=O)ccc1O,"inconclusive: 29.1 µM [activator, single point]",
Cc1ccc(OCCC(=O)OCC(=O)c2ccc3c(c2)NC(=O)CO3)cc1,"inconclusive: 32.6 µM [activator, single point]",
CC1=C(C(=O)Nc2ccccc2F)C(c2ccsc2)C2=C(CC(c3ccccc3)CC2=O)N1 (stereo unspecified),"inconclusive: 18.4 µM [activator, single point]",
CCOc1ccc(/C=N/NC(=O)CC(=O)NCc2ccccc2)cc1,inactive,
CCCC(=O)Nc1ccc(Cc2ccc(NC(=O)CCC)c(C(=O)O)c2)cc1C(=O)O,inactive,
Cn1c(SCC(=O)N(Cc2ccccc2)C(C)(C)C)nc2ccccc21,"inconclusive: 29.1 µM [activator, single point]",
Cc1c(NS(=O)(=O)c2cccs2)cccc1-c1nc2cccnc2s1,inactive,
COc1cc(C(=O)N/N=C(\c2ccccc2)c2ccccn2)cc(OC)c1OC,"inconclusive: 16.4 µM [activator, single point]",
COc1ccc2nc(N=Nc3ccc(O)c4ccccc34)sc2c1,"inconclusive: 4.11 µM [activator, full curve]",
NNC(=S)Nc1ccc(S(=O)(=O)N2CCCCC2)cc1,"inconclusive: 29.1 µM [activator, single point]",
COc1cccc2cc(C(=O)Nc3ccccc3C)/c(=N/O)oc12,"inconclusive: 29.1 µM [activator, single point]",
CC(C)C[C@H](NC(=O)c1nc[nH]c1C(=O)NCc1ccccc1)C(=O)OC(C)(C)C,inactive,
Cc1cccc(-n2cc(-c3ccc([N+](=O)[O-])cc3)[nH]c2=S)c1,inactive,
COc1cc(C2=NOC(C(=O)NCc3cccnc3)C2)cc(OC)c1OC (stereo unspecified),"inconclusive: 23.1 µM [activator, single point]",
Cc1ccc(S(=O)(=O)c2nc(-c3ccccc3)oc2N2CCCC2)cc1,inactive,
O=C(N/N=C/c1ccncc1)c1ccncc1,,inconclusive: -35.8% [activator]
CCOC(=O)COc1ccccc1/C=C\[N+](=O)[O-],active: 4.11 µM,
CC(C)N1C(=O)CC(Nc2ccc(N3CCOCC3)cc2)C1=O (stereo unspecified),inactive,
O=C(NCc1ccccc1F)c1ccc2c(c1)OCO2,inactive,
CC(C)(C(=O)O)c1ccc([C@H](O)CCCN2CCC(C(O)(c3ccccc3)c3ccccc3)CC2)cc1,inactive,
CCC(CC)NC(=O)CN(c1ccccc1OC)S(=O)(=O)c1cccs1,inactive,

Compound,Potency,re-replication activation
Cc1cc2c(cc1C)C(=O)C(Br)=C(N)C2=O,"inconclusive: 29.1 µM [activator, single point]",
COc1cc(-c2noc(C)c2/C=C/c2ccc(OC(C)=O)cc2)cc(OC)c1OC,"inconclusive: 7.31 µM [activator, partial curve, poor fit]",
CCc1nccn1C(=O)c1cnn2c(C(F)F)cc(-c3ccc(C)cc3)nc12,"inconclusive: 18.4 µM [activator, single point]",
CO/N=C1\CCCc2c(C(=O)NN)sc(SC)c21,"inconclusive: 13 µM [activator, partial curve, poor fit]",
C=CCn1c(N)c(C(=O)NCC2CCCO2)c2nc3ccccc3nc21 (stereo unspecified),active: 9.2 µM,
CC1CCN(c2c(NCC3CCC(C(=O)NCCC4=CCCCC4)CC3)c(=O)c2=O)CC1 (stereo unspecified),inactive,
COc1cc(C2=NOC(C(=O)NCc3ccco3)C2)cc(OC)c1OC (stereo unspecified),"inconclusive: 18.4 µM [activator, single point]",
CC(C)OCCCNC(=O)CN1C(=O)/C(=C/c2ccccc2)Sc2ccccc21,inactive,
CCOC(=O)NC(=O)c1cn(CCN(C)C)c(=O)[nH]c1=O,inactive,
CC1(C)CC(N2CCOCC2)=CC(=[N+]2CCOCC2)C1,inactive,
Cc1ccc(CSc2nnc(SCC(=O)N/N=C/c3c[nH]c4ccccc34)s2)cc1,"inconclusive: 25.9 µM [activator, single point]",
CN1C(=O)CC(n2c(CO)nc3ccccc32)C1=O (stereo unspecified),"inconclusive: 3.66 µM [activator, single point]",
Cc1cc(C(=O)NNS(=O)(=O)c2cc(C(=O)O)ccc2Cl)c(C)n1-c1ccccc1,inactive,
CC(=O)c1cc(C#N)c(SCc2ccccc2C#N)nc1C,"inconclusive: 20.6 µM [activator, partial curve, poor fit]",
O=C(CN1CCOCC1)Nc1c2c(nc3ccccc13)N(Cc1ccccc1)CC2,inactive,
COc1cc(OC)c(/C=N/n2c(C)nnc2C)c(OC)c1,inactive,
COCCOC(=O)c1sc(=S)n(CCOC)c1N,"inconclusive: 25.9 µM [activator, single point]",
COc1ccc(/C=C/C(=O)c2ccc3c(c2)OCO3)cc1OC,"inconclusive: 25.9 µM [activator, partial curve, poor fit]",
COc1ccc(NS(=O)(=O)c2ccc(N3CCOCC3)c(NC(=O)c3ccccc3Cl)c2)cc1,"inconclusive: 29.1 µM [activator, single point]",
c1ccc2oc(C3=NNC(=NC4CC4)SC3)cc2c1,"inconclusive: 29.1 µM [activator, single point]",
O=C1C(Cc2ccccc2)Nc2ncnc(N3CCc4ccccc4C3)c2N1Cc1ccc(Cl)cc1 (stereo unspecified),"inconclusive: 29.1 µM [activator, partial curve, poor fit]",
CCc1nc2ccccc2c(=O)n1NC(=O)c1c(O)c2ccccc2n(CC)c1=O,inactive,
N=c1c(C(=O)NCc2ccc(F)cc2)cc2c(=O)n3ccccc3nc2n1Cc1ccco1,"inconclusive: 6.51 µM [activator, partial curve]",
COc1ccc(/C=C(/CC(=O)NCc2ccc(Cl)cc2)c2nc3ccccc3s2)cc1,"inconclusive: 32.6 µM [activator, partial curve, poor fit]",

Compound,Potency,re-replication activation
CCCC(c1nnnn1C(C)(C)C)N1CCN(c2ccccc2)CC1 (stereo unspecified),inactive,
COc1ccccc1NC(=O)Cc1noc(CSc2nnc(C)s2)n1,inactive,
Cc1cc(Cl)c(S(=O)(=O)N2CCSCC2)cc1OCC(=O)NC1CCCCC1,"inconclusive: 16.4 µM [activator, partial curve, poor fit]",
COc1ccccc1C(=O)Nc1cc(-c2ccc(C)cc2)no1,inactive,
Cc1ccc(-c2ccnc3nc(-n4cccc4)nn23)o1,"inconclusive: 32.6 µM [activator, partial curve, poor fit]",
Nc1c(C(=O)N/N=C/c2cccnc2)oc2nc(-c3ccccc3)cc(-c3ccco3)c12,"inconclusive: 32.6 µM [activator, partial curve, poor fit]",
CCOC(=O)c1c(NC(=O)Cc2ccccc2)sc2c1CCN(CC)C2,inactive,
Cc1cccc(Nc2nc(N)c([N+](=O)[O-])c(NCc3ccccc3)n2)c1,"inconclusive: 20.6 µM [activator, single point]",
Nc1nonc1-c1nc2ccccc2n1CC(=O)N/N=C\c1ccc(-c2ccc(Cl)cc2)o1,"inconclusive: 7.08 µM [activator, partial curve, poor fit]",
COc1cc(C(=O)Nc2nnc(Cc3ccccc3)s2)cc(OC)c1OC,"inconclusive: 14.6 µM [activator, single point]",
Cc1ccc(CNC(=O)CN(c2ccc(C)cc2)S(=O)(=O)c2c(C)n[nH]c2C)cc1,"inconclusive: 29.1 µM [activator, single point]",
CNC(=O)c1cc(C(=O)c2ccc(Cl)cc2)c(Br)[nH]1,inactive,
Cc1ccc(OCCn2c(=O)cnc3ccccc32)cc1,"inconclusive: 29.1 µM [activator, single point]",
COc1ccc(CN2C(=O)c3cccc4cccc2c34)cc1F,"inconclusive: 29.1 µM [activator, single point]",
O=C(Cc1ccsc1)Nc1ccc(S(=O)(=O)C(F)F)cc1,inactive,
c1ccc2c(c1)NCC1CCCN21 (stereo unspecified),"inconclusive: 29.1 µM [activator, single point]",
CC(C)CC(=O)NC(=S)Nc1ccc(NC(=O)c2ccco2)cc1,"inconclusive: 29.1 µM [activator, partial curve, poor fit]",
CC(C)(C)NC(=O)NC(=O)COC(=O)c1nc(-c2ccccc2)n(-c2cccc(C(F)(F)F)c2)n1,"inconclusive: 2.91 µM [activator, single point]",
O=[N+]([O-])c1ccc(Sc2ncccn2)c([N+](=O)[O-])c1,"inconclusive: 4.11 µM [activator, partial curve, poor fit]",
C/C(=N\N=C(/N)SC1CC(=O)N(c2ccc(Cl)cc2)C1=O)c1cccs1 (stereo unspecified),inactive,
CCOc1ccccc1N1CCN(C(=O)Cc2ccc(S(=O)(=O)N3CCOCC3)s2)CC1,"inconclusive: 11.6 µM [activator, partial curve, poor fit]",
COc1ccc([C@H]2CC(=O)C=C(c3cccc(C#N)c3)C2)cc1,"inconclusive: 0.206 µM [activator, full curve]",
Cc1nc2c(c3c1[nH]c1ccccc13)C(=O)CC(C)(C)C2,"inconclusive: 20.6 µM [activator, single point]",

# A run of entries from the list above, for reference:
Compound,Potency,re-replication activation
Cc1ccc(CNC(=O)CN(c2ccc(C)cc2)S(=O)(=O)c2c(C)n[nH]c2C)cc1,"inconclusive: 29.1 µM [activator, single point]",
CNC(=O)c1cc(C(=O)c2ccc(Cl)cc2)c(Br)[nH]1,inactive,
Cc1ccc(OCCn2c(=O)cnc3ccccc32)cc1,"inconclusive: 29.1 µM [activator, single point]",
COc1ccc(CN2C(=O)c3cccc4cccc2c34)cc1F,"inconclusive: 29.1 µM [activator, single point]",
